# In paper doi:10.1101/2025.04.25.648738:
# Chains of the proteins cited; added tags and fusions are not shown. Lines headed by an entry give the natural chain unless they say otherwise; changes in a name come on top. A line that says so, or that is headed by a name, gives the form on record, which may keep a tag or linker.
# ZNF207 K42E point mutant, 3xFLAG-tagged (O43670, form named): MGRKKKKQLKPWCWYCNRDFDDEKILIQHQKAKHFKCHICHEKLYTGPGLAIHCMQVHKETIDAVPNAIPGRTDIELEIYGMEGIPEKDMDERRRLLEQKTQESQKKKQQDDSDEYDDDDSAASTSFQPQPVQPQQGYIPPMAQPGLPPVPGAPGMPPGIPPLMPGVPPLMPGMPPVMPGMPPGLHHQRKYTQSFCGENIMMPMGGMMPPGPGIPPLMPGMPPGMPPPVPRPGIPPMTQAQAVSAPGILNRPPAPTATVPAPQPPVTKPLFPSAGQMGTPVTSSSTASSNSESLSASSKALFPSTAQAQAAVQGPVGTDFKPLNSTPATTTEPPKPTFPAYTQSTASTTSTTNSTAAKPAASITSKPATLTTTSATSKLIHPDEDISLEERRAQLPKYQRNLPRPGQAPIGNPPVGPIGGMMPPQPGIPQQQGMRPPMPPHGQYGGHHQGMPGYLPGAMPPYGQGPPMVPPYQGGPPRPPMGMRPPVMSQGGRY
# ZNF207 open reading frame, siRNA-resistant, with a C-terminal 3xFLAG tag (wild type) (O43670, form named): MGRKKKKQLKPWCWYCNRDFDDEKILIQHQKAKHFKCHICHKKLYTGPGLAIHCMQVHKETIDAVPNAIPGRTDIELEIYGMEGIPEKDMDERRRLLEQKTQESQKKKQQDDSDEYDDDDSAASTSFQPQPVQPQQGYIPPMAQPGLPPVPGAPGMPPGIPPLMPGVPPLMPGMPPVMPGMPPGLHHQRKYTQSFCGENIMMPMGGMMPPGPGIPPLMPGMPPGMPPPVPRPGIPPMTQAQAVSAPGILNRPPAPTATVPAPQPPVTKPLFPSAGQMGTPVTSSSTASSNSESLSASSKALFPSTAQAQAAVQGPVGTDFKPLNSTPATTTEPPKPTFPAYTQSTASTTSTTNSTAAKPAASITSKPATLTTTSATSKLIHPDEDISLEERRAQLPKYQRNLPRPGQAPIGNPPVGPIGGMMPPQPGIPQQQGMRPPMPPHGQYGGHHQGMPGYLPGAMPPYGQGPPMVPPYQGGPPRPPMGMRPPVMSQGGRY
# UniProt O75533: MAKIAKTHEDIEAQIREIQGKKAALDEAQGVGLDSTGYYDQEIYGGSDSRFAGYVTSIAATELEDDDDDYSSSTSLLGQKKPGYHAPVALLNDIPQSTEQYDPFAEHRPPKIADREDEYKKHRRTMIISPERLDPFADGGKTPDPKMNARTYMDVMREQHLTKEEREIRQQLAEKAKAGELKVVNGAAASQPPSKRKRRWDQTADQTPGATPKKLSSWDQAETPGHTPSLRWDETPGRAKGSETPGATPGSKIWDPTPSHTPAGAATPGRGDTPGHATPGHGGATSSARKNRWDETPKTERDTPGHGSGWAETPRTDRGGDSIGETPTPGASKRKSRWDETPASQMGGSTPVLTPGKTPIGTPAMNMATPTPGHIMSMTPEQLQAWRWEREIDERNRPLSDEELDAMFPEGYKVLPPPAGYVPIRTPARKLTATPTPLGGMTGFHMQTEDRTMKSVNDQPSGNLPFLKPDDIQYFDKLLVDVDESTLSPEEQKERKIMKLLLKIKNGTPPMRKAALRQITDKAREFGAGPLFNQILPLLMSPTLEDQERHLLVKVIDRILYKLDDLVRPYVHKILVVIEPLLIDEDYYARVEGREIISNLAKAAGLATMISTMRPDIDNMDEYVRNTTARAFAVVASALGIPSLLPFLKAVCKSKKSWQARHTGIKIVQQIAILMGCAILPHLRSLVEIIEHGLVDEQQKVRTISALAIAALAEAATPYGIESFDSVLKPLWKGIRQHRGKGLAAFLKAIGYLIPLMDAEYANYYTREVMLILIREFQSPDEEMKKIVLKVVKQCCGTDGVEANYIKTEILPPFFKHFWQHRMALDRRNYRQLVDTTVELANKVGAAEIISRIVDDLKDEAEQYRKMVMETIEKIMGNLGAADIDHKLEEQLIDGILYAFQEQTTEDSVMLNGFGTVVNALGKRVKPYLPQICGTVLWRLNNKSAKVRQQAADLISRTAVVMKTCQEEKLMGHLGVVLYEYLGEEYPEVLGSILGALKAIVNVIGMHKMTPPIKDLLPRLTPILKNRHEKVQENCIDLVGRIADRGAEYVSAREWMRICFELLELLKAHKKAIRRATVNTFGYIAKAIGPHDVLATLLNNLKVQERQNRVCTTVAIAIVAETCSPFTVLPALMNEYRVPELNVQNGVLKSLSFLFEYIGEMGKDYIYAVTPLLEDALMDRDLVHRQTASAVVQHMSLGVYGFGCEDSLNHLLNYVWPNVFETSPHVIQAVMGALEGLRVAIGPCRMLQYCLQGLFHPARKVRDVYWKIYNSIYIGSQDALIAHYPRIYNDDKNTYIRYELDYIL
# UniProt P08621: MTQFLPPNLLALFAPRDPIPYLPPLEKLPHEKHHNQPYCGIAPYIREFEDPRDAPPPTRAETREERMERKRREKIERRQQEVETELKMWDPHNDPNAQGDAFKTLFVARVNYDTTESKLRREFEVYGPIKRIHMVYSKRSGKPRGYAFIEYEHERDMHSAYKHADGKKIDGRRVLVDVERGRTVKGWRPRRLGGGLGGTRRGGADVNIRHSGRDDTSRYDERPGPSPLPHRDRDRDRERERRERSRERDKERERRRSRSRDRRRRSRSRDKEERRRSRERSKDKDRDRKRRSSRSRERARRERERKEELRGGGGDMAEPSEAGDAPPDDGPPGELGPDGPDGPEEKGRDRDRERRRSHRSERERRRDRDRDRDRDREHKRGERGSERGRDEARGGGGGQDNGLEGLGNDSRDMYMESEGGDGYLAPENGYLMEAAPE
# UniProt O75643: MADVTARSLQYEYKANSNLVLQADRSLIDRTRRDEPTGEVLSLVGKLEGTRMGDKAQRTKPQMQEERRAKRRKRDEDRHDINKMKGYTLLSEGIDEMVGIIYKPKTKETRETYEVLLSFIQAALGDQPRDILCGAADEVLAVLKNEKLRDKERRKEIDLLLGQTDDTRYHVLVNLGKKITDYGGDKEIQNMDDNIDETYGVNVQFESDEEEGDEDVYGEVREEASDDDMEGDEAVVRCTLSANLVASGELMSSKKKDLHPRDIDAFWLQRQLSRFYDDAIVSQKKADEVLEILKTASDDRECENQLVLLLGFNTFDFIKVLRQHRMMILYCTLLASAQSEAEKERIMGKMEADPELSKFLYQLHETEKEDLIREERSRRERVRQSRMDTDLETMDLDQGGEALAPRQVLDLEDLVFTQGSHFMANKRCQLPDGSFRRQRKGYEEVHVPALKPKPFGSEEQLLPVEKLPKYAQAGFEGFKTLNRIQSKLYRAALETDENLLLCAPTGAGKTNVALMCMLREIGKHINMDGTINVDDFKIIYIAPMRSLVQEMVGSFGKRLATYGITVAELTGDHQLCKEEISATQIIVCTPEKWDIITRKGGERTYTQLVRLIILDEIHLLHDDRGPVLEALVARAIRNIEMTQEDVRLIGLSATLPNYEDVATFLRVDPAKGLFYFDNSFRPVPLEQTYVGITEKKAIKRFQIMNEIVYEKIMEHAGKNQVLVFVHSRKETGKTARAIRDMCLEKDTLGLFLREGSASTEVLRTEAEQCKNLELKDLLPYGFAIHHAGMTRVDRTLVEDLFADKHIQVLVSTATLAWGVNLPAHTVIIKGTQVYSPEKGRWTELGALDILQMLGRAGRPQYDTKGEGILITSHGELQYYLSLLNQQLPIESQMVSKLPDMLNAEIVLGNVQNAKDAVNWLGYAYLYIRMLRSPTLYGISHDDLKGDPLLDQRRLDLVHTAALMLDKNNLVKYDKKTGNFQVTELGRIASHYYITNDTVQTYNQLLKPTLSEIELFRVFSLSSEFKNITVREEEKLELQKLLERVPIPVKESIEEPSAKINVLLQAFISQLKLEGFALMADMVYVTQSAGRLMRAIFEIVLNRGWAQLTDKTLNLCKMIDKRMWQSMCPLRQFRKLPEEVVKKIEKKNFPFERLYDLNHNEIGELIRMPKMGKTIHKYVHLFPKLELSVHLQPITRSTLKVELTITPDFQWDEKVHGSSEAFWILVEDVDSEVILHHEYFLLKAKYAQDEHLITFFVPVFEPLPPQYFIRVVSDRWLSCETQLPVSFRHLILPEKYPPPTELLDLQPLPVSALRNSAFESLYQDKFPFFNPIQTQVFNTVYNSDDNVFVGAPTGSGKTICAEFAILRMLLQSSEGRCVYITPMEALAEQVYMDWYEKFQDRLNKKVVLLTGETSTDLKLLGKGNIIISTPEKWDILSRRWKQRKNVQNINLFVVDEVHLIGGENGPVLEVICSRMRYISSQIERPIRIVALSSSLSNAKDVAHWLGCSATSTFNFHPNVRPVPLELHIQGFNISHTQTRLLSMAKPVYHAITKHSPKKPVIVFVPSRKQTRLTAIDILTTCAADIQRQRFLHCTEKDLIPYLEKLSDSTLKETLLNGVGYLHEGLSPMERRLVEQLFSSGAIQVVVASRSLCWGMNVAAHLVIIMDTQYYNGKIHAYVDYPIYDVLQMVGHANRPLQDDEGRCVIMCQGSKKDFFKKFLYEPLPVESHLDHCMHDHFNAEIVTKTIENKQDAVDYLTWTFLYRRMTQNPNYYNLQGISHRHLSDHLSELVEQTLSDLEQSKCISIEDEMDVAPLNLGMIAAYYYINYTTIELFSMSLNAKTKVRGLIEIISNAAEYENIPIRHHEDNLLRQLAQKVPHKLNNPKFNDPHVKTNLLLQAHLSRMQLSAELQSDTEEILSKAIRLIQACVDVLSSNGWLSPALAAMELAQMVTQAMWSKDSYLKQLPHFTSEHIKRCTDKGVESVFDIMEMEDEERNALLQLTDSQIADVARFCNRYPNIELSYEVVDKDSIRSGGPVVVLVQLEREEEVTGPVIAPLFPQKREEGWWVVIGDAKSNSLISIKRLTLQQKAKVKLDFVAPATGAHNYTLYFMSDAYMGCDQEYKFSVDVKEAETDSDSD
# UniProt P09012: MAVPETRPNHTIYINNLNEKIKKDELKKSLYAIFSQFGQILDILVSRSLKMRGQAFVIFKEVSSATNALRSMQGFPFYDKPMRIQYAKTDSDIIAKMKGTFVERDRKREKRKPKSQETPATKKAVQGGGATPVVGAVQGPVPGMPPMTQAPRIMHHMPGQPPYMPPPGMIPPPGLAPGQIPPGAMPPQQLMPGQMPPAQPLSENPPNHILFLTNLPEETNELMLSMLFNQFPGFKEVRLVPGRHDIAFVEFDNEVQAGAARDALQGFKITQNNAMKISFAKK
# These are yes or no findings as the source states them, for the method shown. Binding seen in cells or lysates may run through a third protein. Some results given as binding are weak or reduced against the parent protein; the word gives no strength.
# Biological target: ZNF207 K42E point mutant, 3xFLAG-tagged (human) (UniProt O43670)
# Assay: co-IP; anti-FLAG M2 magnetic beads on benzonase-treated lysates of HEK293 Flp-In cells expressing FLAG-tagged ZNF207 or its mutants (doxycycline 0.5 ug/mL, 20 h); IGEPAL buffer (50 mM Tris-HCl pH 7.5, 150 mM NaCl, 1% IGEPAL CA-630, 5% glycerol), 4 C, 4.5 h, four washes; western blot of endogenous partners
row,Molecule,binding
1,SF3B1 (from UniProt O75533 1-1304),binds

# Biological target: ZNF207 open reading frame, siRNA-resistant, with a C-terminal 3xFLAG tag (wild type) (human) (UniProt O43670)
# Assay: as above
row,Molecule,binding
1,SF3B1 (from UniProt O75533 1-1304),binds
2,SNRNP70 (from UniProt P08621 1-437),binds
3,SNRNP200 (from UniProt O75643 1-2136),binds
4,SNRPA (from UniProt P09012 1-282),binds
5,"PRPF6 (protein, UniProt O94906 1-941) MNKKKKPFLGMPAPLGYVPGLGRGATGFTTRSDIGPARDANDPVDDRHAPPGKRTVGDQMKKNQAADDDDEDLNDTNYDEFNGYAGSLFSSGPYEKDDEEADAIYAALDKRMDERRKERREQREKEEIEKYRMERPKIQQQFSDLKRKLAEVTEEEWLSIPEVGDARNKRQRNPRYEKLTPVPDSFFAKHLQTGENHTSVDPRQTQFGGLNTPYPGGLNTPYPGGMTPGLMTPGTGELDMRKIGQARNTLMDMRLSQVSDSVSGQTVVDPKGYLTDLNSMIPTHGGDINDIKKARLLLKSVRETNPHHPPAWIASARLEEVTGKLQVARNLIMKGTEMCPKSEDVWLEAARLQPGDTAKAVVAQAVRHLPQSVRIYIRAAELETDIRAKKRVLRKALEHVPNSVRLWKAAVELEEPEDARIMLSRAVECCPTSVELWLALARLETYENARKVLNKARENIPTDRHIWITAAKLEEANGNTQMVEKIIDRAITSLRANGVEINREQWIQDAEECDRAGSVATCQAVMRAVIGIGIEEEDRKHTWMEDADSCVAHNALECARAIYAYALQVFPSKKSVWLRAAYFEKNHGTRESLEALLQRAVAHCPKAEVLWLMGAKSKWLAGDVPAARSILALAFQANPNSEEIWLAAVKLESENDEYERARRLLAKARSSAPTARVFMKSVKLEWVQDNIRAAQDLCEEALRHYEDFPKLWMMKGQIEEQKEMMEKAREAYNQGLKKCPHSTPLWLLLSRLEEKIGQLTRARAILEKSRLKNPKNPGLWLESVRLEYRAGLKNIANTLMAKALQECPNSGILWSEAIFLEARPQRRTKSVDALKKCEHDPHVLLAVAKLFWSQRKITKAREWFHRTVKIDSDLGDAWAFFYKFELQHGTEEQQEEVRKRCESAEPRHGELWCAVSKDIANWQKKIGDILRLVAGRIKNTF",binds
